Primary screen of a compound library

The chains behind the UniProt entries cited, without tags or fusion partners.
UniProt E9BF75, entry or part of it: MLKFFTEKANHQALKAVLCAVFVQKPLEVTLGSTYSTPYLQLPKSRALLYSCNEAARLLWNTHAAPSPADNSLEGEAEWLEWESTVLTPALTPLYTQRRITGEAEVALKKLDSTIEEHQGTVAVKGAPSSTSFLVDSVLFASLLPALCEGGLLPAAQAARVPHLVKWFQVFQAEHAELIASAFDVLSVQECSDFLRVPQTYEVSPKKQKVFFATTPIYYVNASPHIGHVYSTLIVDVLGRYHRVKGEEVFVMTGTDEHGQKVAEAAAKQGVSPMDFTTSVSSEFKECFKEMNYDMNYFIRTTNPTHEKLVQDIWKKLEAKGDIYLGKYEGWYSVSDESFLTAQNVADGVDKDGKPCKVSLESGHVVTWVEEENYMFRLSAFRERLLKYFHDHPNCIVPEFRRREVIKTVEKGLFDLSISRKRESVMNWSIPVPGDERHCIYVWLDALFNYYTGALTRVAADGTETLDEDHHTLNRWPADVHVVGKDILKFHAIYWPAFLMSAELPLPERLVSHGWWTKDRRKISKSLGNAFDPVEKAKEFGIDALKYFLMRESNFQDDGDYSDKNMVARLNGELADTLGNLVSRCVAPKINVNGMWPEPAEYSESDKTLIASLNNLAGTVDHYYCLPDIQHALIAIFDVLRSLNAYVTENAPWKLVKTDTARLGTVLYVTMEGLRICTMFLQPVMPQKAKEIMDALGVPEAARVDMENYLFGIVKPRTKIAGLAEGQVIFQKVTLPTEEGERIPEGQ

Source: ChEMBL document CHEMBL3988442, “University of Dundee, Small-Polar-MMV Screening Library” (2021).

A: 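Assay on Mycobacterium tuberculosis, filed only as a heat shock assay from Cornell; the read-out is not stated. The concentration is filed as 10 mM, unlikely as a test dose, so the dose is not known. Direction is inferred from retests: higher values go with stronger inhibition. About 69,000 compounds were tested under these conditions; 1.4% (about 930) showed 50% or more at least once.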
B: 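Primary screen of methionyl-tRNA synthetase; the read-out is not stated. Target: Methionyl-tRNA synthetase (putative), Leishmania donovani (UniProt E9BF75). The test concentration is not given. Values are per cent inhibition. Of about 68,000 compounds tested this way, about 24 (0.035%) reached 50% or more in at least one test.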
C: 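Whole-cell assay for inhibitors of Mycobacterium tuberculosis growth, labelled Cornell in the record; the read-out is not stated. The concentration is filed as 10 mM, unlikely as a test dose, so the dose is not known. The record gives no direction; compounds strong in two other growth screens of this library score well above the rest, so higher reads as stronger inhibition. About 53,000 compounds were tested under these conditions; 1.7% (about 900) showed 50% or more at least once.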

All values are in %. The record does not define 0% and 100%; most values in the screen are far below 50% and negative numbers occur (in some assays of this library far below -100). The compounds are a random part of those screened. A dash means the value is not listed here; it may have been measured.

compound	A	B	C
Cc1cc(CN2CCN(Cc3ccccc3F)CC2)no1	0.3103%	3.684%	-2.721%
O=C1[C@H]2CN(S(=O)(=O)c3cccs3)C[C@H]2CN1CC1CC1	-	7.222%	-
O=c1cc(Cn2cncn2)nc2n1CCCN(Cc1ccoc1)C2	-16.64%	12.5%	-
O=C(O)C(F)(F)F.[H][C@@]12OCCN(Cc3ccc(F)c(F)c3)[C@@]1([H])CC[C@H]2OC	-24.24%	-	30.69%
CN(c1ccc2ccccc2c1)S(=O)(=O)c1cc(C(=O)O)cs1	-3.517%	-5.861%	-
CC(Cn1cncn1)NC(=O)c1cn(Cc2ccccc2F)nn1 (stereo not shown)	0.5697%	-1.761%	-32.09%
Cc1cc(C)n(-c2ccc(N3CCC4(CC3)OCC(C)O4)nc2)n1 (stereo not shown)	-18.95%	9.524%	-
c1ccc(-c2nc(CN3CCCC(Cn4cncn4)C3)cs2)cc1 (stereo not shown)	18%	24.23%	-
COCC(=O)N1CC[C@@H](O)[C@@H]1Cc1ccccc1	7.624%	3.863%	5.126%
Cc1ccc(N(C)S(=O)(=O)c2cc(C(=O)O)cs2)c(C)c1	1.684%	1.709%	5.903%
CSc1ccc(NC(=O)Cn2cc(NC(C)=O)cn2)cc1	4.082%	10.36%	-
CC(C)c1noc(CN2CCN(C(=O)OC(C)(C)C)C(C)C2)n1 (stereo not shown)	-6.116%	8.101%	-32.51%
CCCN(CCO)C(=O)C1CCC(=O)N(CCc2ccc(Cl)cc2)C1 (stereo not shown)	18.95%	12.39%	11.81%
CN1CCN(Cc2cnc3n2CCN(C(=O)N2CCCC2)C3)CC1	0.07448%	6.032%	11.91%
Cl.c1cnc2c(c1)cc([C@H]1CCCO1)n2CCN1CCOCC1	-24.1%	-	21.82%
COc1ccc(CN(Cc2cncn2C)CC2CCCO2)c(OC)c1 (stereo not shown)	-	7.877%	-
Cn1cc(N2CC3(CCN(Cc4cccs4)CC3)OCC2=O)cn1	-	13.5%	-
Cc1c(C)n(Cc2ccccn2)c2nc3c(c(N)c12)CCCCC3	6.572%	6.97%	-15.59%
CCN(C)c1ncnc2c1CCN(C(=O)c1ccsc1)CC2	-	3.226%	-
Cc1cc(Nc2ccc(F)cn2)cc(C2CCCN2)n1 (stereo not shown)	-27.48%	10.38%	28.74%
O=c1c2ccccc2nc2n1C(CSc1ccc(Br)cc1)CN2 (stereo not shown)	26.02%	19.41%	19.98%
CCO[C@@H]1CC[C@H]2[C@H]1OCCN2Cc1ccc(F)cc1	-	6.849%	-
c1ncn(CC2CN(CC3CCCC3)CCO2)n1 (stereo not shown)	-4.548%	2.778%	-
Cc1nc(CN2CCN(C(=O)CC(C)(C)c3ccccc3)CC2)no1	-7.87%	5.694%	-
CCC(O)CN1CCN(C(=O)c2cccc3[nH]ncc23)CC1 (stereo not shown)	2.84%	9.399%	-8.843%
CCOC(=O)c1ccc(CNC(=O)c2ccc(C)nc2)o1	-25.64%	-5.307%	-32.63%
Cn1cc(CN2CCc3nc4ccccc4c(=O)n3CC2)cn1	-17.56%	19.81%	52.34%
Cc1noc(C(C)C)c1C(=O)N1CCC(n2cccn2)CC1	-19.64%	-0.838%	-35.19%
N#Cc1cnn(CCN2CCOC(CNc3cccnn3)C2)c1 (stereo not shown)	-18.64%	5.988%	-4.605%
CC(C)n1cc(-c2nc3cc(S(=O)(=O)N4CCCC4)ccc3n2C)cn1	19.54%	9.763%	5.611%
COCCN1C[C@@H]2CN(c3ncc(F)cn3)C[C@@H]2C1=O	-	8.383%	-
Cc1nn(CCNC(=O)c2cc(C3CC3)[nH]n2)c(C)c1Cl	-1.922%	19.89%	-
CCNc1cc2c(nn1)CCN(C(=O)c1cc3cccc(C)c3o1)C2	-8.452%	20.52%	-17.15%
CC(=O)NCCNc1nccc(CCC(F)(F)F)n1	-8.815%	11.64%	9.654%
Cc1nn(CCC#N)c(C)c1CCC(=O)N(C)Cc1ccc(F)cc1F	-18%	4.326%	-9.965%
COc1cc(-n2ccnc2-c2ccc(C(=O)O)s2)ccc1NC(C)=O	13.93%	18.61%	22.59%
O=C(CCOc1ccccc1)NS(=O)(=O)Cc1ccccc1	-5.929%	6.959%	-3.218%
COc1ccc(Cn2nnnc2SCC2CCCN(C)C2)cc1 (stereo not shown)	-31.48%	9.115%	40.4%
COc1cc(C)ccc1OCc1nc(C(=O)N2CCCC2)co1	6.456%	5.177%	0.1381%
Cc1nc2n(n1)CC(NCc1csc(-c3ccsc3)n1)CC2 (stereo not shown)	0.9843%	13.22%	-
O=C(c1cnccn1)N1CCc2ncnc(C3CCOC3)c2CC1 (stereo not shown)	6.762%	19.23%	-10.57%
CCn1cnnc1CNC(=O)c1ccc(Cl)cc1F	0.09815%	10.42%	-
O=C1CN(C(=O)c2cccc(OCc3cscn3)c2)CCN1	12.45%	17.21%	-
Cc1nc(CN2CCCN(CCOc3ccc(C#N)cc3)CC2)no1	17.19%	17.14%	-0.9751%
CN1CCOC(CNCc2nc(-c3cccnc3)no2)C1 (stereo not shown)	6.178%	9.021%	0.9738%
Cc1cc(C)n(CCN2CCC(N(C)Cc3noc(C4CC4)n3)C2)n1 (stereo not shown)	-31.31%	6.504%	12.2%
CCC(=O)NCC(=O)NC(C)c1ccc(OCCC(C)C)cc1 (stereo not shown)	-7.92%	-16.02%	-
CCn1ncc2c1C(COCC1CC1)N(Cc1c(C)noc1C)CC2.O=C(O)C(F)(F)F.O=C(O)C(F)(F)F (stereo not shown)	-20.22%	-	31.89%
CN1CCC(CNC(=O)c2cccc(CN3CCCCCC3)c2)C1 (stereo not shown)	11.73%	24.55%	39.13%
CCN(Cc1nccn1C)C1CCN(c2ccccc2)C1=O (stereo not shown)	-14.64%	12.01%	-3.779%
CCOCC(=O)N1Cc2cnc(-c3ccccc3)nc2C1	-2.469%	8.271%	-
Cc1cnc(CNC(=O)c2cc3c(s2)CCN3S(C)(=O)=O)cn1	8.568%	14.19%	8.537%
CN(C)CCNC(=O)c1ccn(-c2ccc3ccccn23)n1.O=C(O)C(F)(F)F	-23.18%	-	12.93%
COc1cccc(-c2n[nH]cc2CNC2CCN(C(C)C)CC2)c1	-	13.26%	-
CCCn1ncc(CN2CCCCC2CCCOC)c1C (stereo not shown)	-2.221%	17.38%	-
CC(C)c1nnc(CN2CC(n3cccn3)Cc3ccccc32)o1 (stereo not shown)	9.277%	6.497%	-28.68%
Cc1cc(C(=O)N2CCN(c3ccncc3Cl)CC2)n(C)n1	-17.69%	19.63%	20.74%
CCOCc1ccc(CNc2cncc(-n3cccn3)n2)cc1	-0.9926%	-1.136%	-
CNc1cc(C(=O)NCCC2=CSC3=NCCCN23)ccn1	-5.861%	12.27%	-
COCCC1(CO)CCCN(Cc2ccc(C(F)(F)F)cc2)C1 (stereo not shown)	-9.154%	13.4%	17.35%
CCn1nc2c(cc1=O)CN(Cc1nc(-c3cccnc3)no1)CC2	10.92%	14.74%	-

The last 6 entries again:

compound,A,B,C
CC(C)c1nnc(CN2CC(n3cccn3)Cc3ccccc32)o1 (stereo not shown),9.277%,6.497%,-28.68%
Cc1cc(C(=O)N2CCN(c3ccncc3Cl)CC2)n(C)n1,-17.69%,19.63%,20.74%
CCOCc1ccc(CNc2cncc(-n3cccn3)n2)cc1,-0.9926%,-1.136%,-
CNc1cc(C(=O)NCCC2=CSC3=NCCCN23)ccn1,-5.861%,12.27%,-
COCCC1(CO)CCCN(Cc2ccc(C(F)(F)F)cc2)C1 (stereo not shown),-9.154%,13.4%,17.35%
CCn1nc2c(cc1=O)CN(Cc1nc(-c3cccnc3)no1)CC2,10.92%,14.74%,-